In PubChem BioAssay AID1347076 (National Center for Advancing Translational Sciences (NCATS), 2019):
About 13,000 (3.2%) of roughly 400,000 compounds were called active. Inconclusive means that the source gave no clear call. Such entries were picked first, then a sample of the others. Calls come from the whole dose curve; as a rule, active = well fitted cell-killing curve with a large enough effect; inconclusive = small, poorly fitted or top-dose-only effect, or effect the other way; inactive = flat fitted curve, though single readings scatter. Where the call is inconclusive, the potency comes from a doubtful curve fit.

assay: qHTS assay for MDR1-selective chemotherapeutics: Primary screen using the drug-selected MDR subline cells KB-V1; settings: KB-V1 MDR cells viability, CellTiter-Glo, 72 h; activity change, negative = cytotoxicity: at 46.1 µM (top of the series); note: nearly all actives have a fitted effect of over 60% in size
How it was run: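 qHTS viability screen in drug-selected KB-V1 MDR cells: 72 h compound treatment at 37 degrees C, ATP luminescence end point.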
% is set by controls: 0 for no effect and ±100 for the full control effect; potency is the fitted concentration of half-maximal effect.

Row | Structure (SMILES) | Potency | activity change, negative = cytotoxicity
1 | CC(C(=O)NC(=O)NC1CCCCC1)N(C)CC(=O)Nc1ccc(F)c(F)c1F (stereo not drawn) | inconclusive: 29.1 µM [cytotoxic, single point] | –
2 | CCOC(=O)C1CCCN(c2nc3ccccc3nc2C(C#N)C(=O)OC(C)C)C1 (stereo not drawn) | inconclusive: 18.4 µM [cytotoxic, partial curve] | –
3 | COC[C@@H]1CCCN1c1ccc2c(c1)O[C@@H](COCc1ccccc1)CN([C@@H](C)c1ccccc1)S2(=O)=O | inconclusive: 4.11 µM [cytotoxic, full curve] | –
4 | COc1cc(CCC(=O)Nc2ncc(C)s2)cc(OC)c1OC | – | inactive: 9.2%
5 | COc1cccc(CN(C(=O)Cc2c[nH]c3ccccc23)C(C(=O)NC2CCCCC2)c2ccc(C)o2)c1 (stereo not drawn) | active: 20.6 µM | –
6 | CC(=O)c1cccc(-c2ccnc3c2CC(C(=O)NCc2ccc(N4CCN(C)CC4)cc2)O3)c1 (stereo not drawn) | – | inactive: 3.82%
7 | Cc1cc(Cl)c(OCCCNCc2ccccc2)c(Br)c1 | inconclusive: 20.6 µM [cytotoxic, single point] | –
8 | O=C(O)/C=C/C(=O)Nc1ccc(OCc2ccccc2)cc1 | – | inactive: 9.45%
9 | O=C(O)/C=C\C(=O)NNC(=O)c1cc(-c2ccccc2)n[nH]1 | inconclusive: 14.6 µM [cytotoxic, single point] | –
10 | COc1ccccc1CN1C(=O)[C@@H]2Cc3c([nH]c4ccccc34)C(C)(C)N2C1=O | active: 20.6 µM | –
11 | CCOc1ccc(/C=N/NC(=O)c2ccncc2)cc1OC | – | inactive: 3.33%
12 | Cc1ccccc1NC(=O)C1Cc2ccccc2C(=O)O1 (stereo not drawn) | – | inactive: 6.88%
13 | COC(=O)c1sc2nc3c(cc2c1N)CCCC3 | inconclusive: 18.4 µM [cytotoxic, single point] | –
14 | COc1cc(OC)cc(C(=O)NNC(=O)c2ccccn2)c1 | inconclusive: 1.84 µM [cytotoxic, full curve] | –
15 | Cc1ccc(Cl)c(Nc2ccccc2C(=O)O)c1Cl | inactive | –
16 | Cc1ccccc1OCC(=O)NNC(=O)Nc1ccc(Cl)cc1 | active: 5.17 µM | –
17 | CN(C1=C(NC(=O)c2ccccc2)C(=O)c2ccccc2C1=O)C1CCS(=O)(=O)C1 (stereo not drawn) | inconclusive: 29.1 µM [cytotoxic, single point] | –
18 | O=C1C(=C(I)I)c2ccccc2-c2ccccc21 | active: 14.6 µM | –
19 | O=C(/C=C/c1cccc2ccccc12)c1ccncc1 | active: 2.59 µM | –
20 | COc1ccc2c(C)c(Cc3ccccc3)c(=O)oc2c1OC | inconclusive: 29.1 µM [cytotoxic, single point] | –
21 | CCc1c(C)nc2ncnn2c1NC1CCCc2ccccc21 (stereo not drawn) | inconclusive: 8.2 µM [cytotoxic, partial curve] | –
22 | CC1CN(CCOc2ccc(Cl)cc2Cl)CC(C)O1 (stereo not drawn) | inconclusive: 23.1 µM [cytotoxic, partial curve] | –
23 | O=C(NC(=S)Nc1ccc(-c2ccc(CO)o2)cc1)c1cccs1 | – | inactive: 12.9%
24 | Cc1ccccc1CNCCCSc1nnnn1C | – | inactive: -17.6%
25 | Cc1ccc(NC(=O)CSCc2cc(=O)c3ccccc3[nH]2)c(C)c1 | – | inactive: 0%
26 | CC1Cc2ccccc2N1C(=O)COC(=O)c1ccc(N(C)C)cc1 (stereo not drawn) | inconclusive: 0.517 µM [cytotoxic, full curve, poor fit] | –
27 | COCCNc1nc(N)c([N+](=O)[O-])c(N2CCCCCC2)n1 | – | inactive: -0.779%

Entries of single compounds as entered above.
COc1cc(OC)cc(C(=O)NNC(=O)c2ccccn2)c1 in the list: Potency: inconclusive: 1.84 µM [cytotoxic, full curve]
Cc1ccccc1NC(=O)C1Cc2ccccc2C(=O)O1 (stereo not drawn) in the list: activity change, negative = cytotoxicity: inactive: 6.88%
COC(=O)c1sc2nc3c(cc2c1N)CCCC3 in the list: Potency: inconclusive: 18.4 µM [cytotoxic, single point]
CC1CN(CCOc2ccc(Cl)cc2Cl)CC(C)O1 (stereo not drawn) in the list: Potency: inconclusive: 23.1 µM [cytotoxic, partial curve]

The list continues:

Row | Structure (SMILES) | Potency | activity change, negative = cytotoxicity
28 | Cn1c(SCCCC(=O)c2ccc(F)cc2)nnc1-c1ccncc1 | – | inactive: 0.256%
29 | Cc1ccc(C(=O)N(CN2CCCC2=O)c2ccccc2)cc1C | inconclusive: 32.6 µM [cytotoxic, partial curve, poor fit] | –
30 | CCOc1ccc(CNC(=O)c2cc3c(=O)oc4ccc(C)cc4c3s2)cc1 | – | inactive: 13.7%
31 | CCOC(=O)c1sc(NC(=O)CSc2nc(C)cc(C)n2)c(C#N)c1C | active: 8.2 µM | –
32 | COc1ccccc1C1=CC(=O)C[C@H](c2ccc(F)cc2)C1 | inconclusive: 0.0073 µM [rising, full curve, poor fit] | –
33 | CCc1ccc(NC(=O)C2CCCN2c2nn3c(=O)cc(C)nc3s2)cc1 (stereo not drawn) | – | inactive: 12.8%
34 | CN(C)CCCN(C(=O)CCc1ccccc1)c1nc2ccc(F)cc2s1 | – | inactive: -16.3%
35 | Cc1ccc(S(=O)(=O)N2CCOc3ccccc32)c(C)c1NS(C)(=O)=O | – | inactive: -4.86%
36 | Fc1ccc(-n2cc(CNCCc3ccccn3)c(-c3ccccc3Cl)n2)cc1 | active: 20.6 µM | –
37 | CCOC(=O)C1=NS(=O)(=O)NC(C)=C1 | – | inactive: -0.875%
38 | CCC(CC)C(=O)N(C)c1c(C)nc2c(OCc3cc(Cl)cc(Cl)c3)cccn12 | inconclusive: 18.4 µM [cytotoxic, partial curve, poor fit] | –
39 | O=C1N=C(N2CCOCC2)S/C1=C1\C(=O)N(Cc2ccccc2)c2ccccc21 | inconclusive: 2.91 µM [cytotoxic, full curve] | –
40 | CC(C)Cn1c(O)c(N=NC(=O)c2cccc(S(=O)(=O)N3CCCCC3)c2)c2ccccc21 | active: 2.06 µM | –
41 | OC[C@H]1O[C@@H](c2nc3ccc(-c4nc(-c5cccs5)no4)cc3[nH]2)C[C@@H]1O | – | inactive: 4%
42 | CC(Sc1nncs1)C(=O)NC1CCCCC1C (stereo not drawn) | – | inactive: 2.55%
43 | O=S1(=O)C=C[C@@H](CO)N1Cc1ccc(Br)cc1 | – | inactive: -15.2%
44 | O=C(NCc1ccco1)c1ccc(CS(=O)Cc2cccc(Cl)c2)o1 (stereo not drawn) | – | inactive: 4.92%
45 | O=C(CCCN1C(=O)C(c2ccccc2)Oc2cccnc21)Nc1ccccc1Cl (stereo not drawn) | – | inactive: -3.09%
46 | COCCCNC(=S)N1CCN(c2nc(-c3cccc(OC)c3)cs2)CC1 | inconclusive: 13 µM [cytotoxic, partial curve] | –
47 | CCOc1cc(S(=O)(=O)N(CC)CC)ccc1F | inconclusive: 18.4 µM [cytotoxic, single point] | –
48 | CCCCCCCc1c(C)nc(N2CCOCC2)[nH]c1=O | – | inconclusive: -44%
49 | CC1CCCN(c2ccc(C(=O)Nc3cccnc3)cc2[N+](=O)[O-])C1 (stereo not drawn) | inconclusive: 14.6 µM [cytotoxic, partial curve] | –
50 | Cc1ccccc1NC(=O)CSc1ccc(-c2cccnc2)nn1 | inconclusive: 20.6 µM [cytotoxic, partial curve, poor fit] | –
51 | CCC(=O)Nc1ccc(N2CCN(C(=O)c3ccco3)CC2)c(Cl)c1 | – | inactive: -22.9%
52 | Cc1oncc1C(=S)Nc1ccccc1 | – | inactive: -0.647%
53 | COc1ccc(CNC(=O)c2cc(-c3ccccc3O)n[nH]2)cc1 | – | inactive: 9.49%
